For some assays here: Part of at least one peptide drawing is inferred or uncertain, most often the ends. For some assays here: For at least one compound, name, drawing or mass did not settle the structure. *1 amine or outer side, *2 acyl side, *3 side chain or, on linkers, in order; H or OH if unused. Where a SMILES comes first, the peptide text is derived from it. [ ]: non-standard residue; d: D form. X1 = NCCCC[C@H](N)CN([C@@H](CCCCN)C(=O)[*:2])[*:1]; Tle = CC(C)(C)[C@H](N)C(=O)O
What was measured:
Long Evans (LE) rats = experiment: PPI and acoustic startle response in wild type Long Evans rats; assay type: in vivo
Brattleboro (BB) rats = experiment: PPI and acoustic startle response in Brattleboro rats with inherent PPI deficit; assay type: in vivo
[1] = system: alpha-1 adrenergic receptors; conditions: cited from earlier work
Brown Norway (BN) rats = experiment: PPI in Brown Norway rats with low PPI; assay type: in vivo; conditions: for PPI in BN rats: acute administration
[2] = system: PPI deficits produced by the serotonin-2A agonist DOI; experiment: DOI-induced disruption of prepulse inhibition (PPI) of the startle reflex; assay type: in vivo, Sprague Dawley rats; conditions: PD149163; dose not given
Experimental: Animals: Ninety-six male Sprague Dawley rats (250-300 grams at testing) were obtained from Harlan Laboratories, San Diego. In the experiments of Example 1, all groups contained an n of 8. Animals were housed in groups of two or three in clear plastic chambers in a climate controlled room on a 12:12 hour light/dark cycle (lights on 7:00 a.m.-7:00 p.m.). The rats were handled prior to testing. All testing occurred during the light phase of the rats' circadian illumination schedule and they were allowed free access to food and water for the extent of the study, except during the actual testing. Behavioral testing was performed between 9:00 am and 4:30 pm beginning 7 days after arrival. All studies described in this publication were carried out in accordance with the “Principles of laboratory and animal care” as described in the Guide for the Care and Use of Laboratory Animals as adopted and promulgated by the National Institutes of Health. […]
Startle Testing and Test Sessions. […] Startle amplitude was defined as the degree of motion detected by the piezoelectric unit. […]
NT69L versus DOI. […] Animals were tested in startle chambers thirty minutes later and PPI measured as described. […]
Data and Statistical Analysis. A startle response was recorded for all stimuli presentations. […]

[3] = system: PPI deficits produced by the alpha-1 adrenergic agonist cirazoline; experiment: Cirazoline-induced disruption of prepulse inhibition (PPI) of the startle reflex; assay type: in vivo, Sprague Dawley rats
Experimental: Animals: Ninety-six male Sprague Dawley rats (250-300 grams at testing) were obtained from Harlan Laboratories, San Diego. In the experiments of Example 1, all groups contained an n of 8. Animals were housed in groups of two or three in clear plastic chambers in a climate controlled room on a 12:12 hour light/dark cycle (lights on 7:00 a.m.-7:00 p.m.). The rats were handled prior to testing. All testing occurred during the light phase of the rats' circadian illumination schedule and they were allowed free access to food and water for the extent of the study, except during the actual testing. Behavioral testing was performed between 9:00 am and 4:30 pm beginning 7 days after arrival. All studies described in this publication were carried out in accordance with the “Principles of laboratory and animal care” as described in the Guide for the Care and Use of Laboratory Animals as adopted and promulgated by the National Institutes of Health.
Drugs: PD149163 (LysΨ(CH2NH)-Lys-Pro-Trp-tLeu-Leu-OEt) was generously made available by the NIMH Chemical Synthesis and Drug Supply Program, and SR1 International, Menlo Park, Calif. NT69L (N-methyl-Arg-Lys-Pro-L-neo-Trp-tLeu-Leu) was developed at Mayo Clinic, Jacksonville, Fla., as described in Tyler-McMahon et al. 2000. DOI and cirazoline hydrochloride were obtained from Sigma Chemicals, St. Louis, Mo. All drugs used were dissolved in saline.
Startle Testing and Test Sessions. Startle testing was performed in four identical startle chambers obtained from San Diego Instruments (San Diego, Calif.). Each chamber consisted of a clear non-restrictive Plexiglass cylinder resting on a Plexiglass platform inside a ventilated and illuminated enclosure housed in a sound-attenuated room. A continuous background noise of 65 dB, as well as the various acoustic stimuli, was produced within each chamber by a high-frequency loudspeaker (Radio Shack Supertweeter, San Diego, Calif.). The whole-body startle response of each animal produced vibrations of the Plexiglass cylinder, which were transduced into analog signals by a piezoelectric unit, mounted underneath the Plexiglass platform (Mansbach et al., 1988). These analog signals were then digitized and stored by an interface unit connected to a microcomputer. Startle amplitude was defined as the degree of motion detected by the piezoelectric unit.
The animals were subjected to a 5-minute acclimation to the 65 dB background noise, which continued throughout the session. The acclimation was followed by a 15 minute PPI test session. Five trial types were presented during the test session: 40 msec 120 dB startle pulses (PULSE-ALONE), startle pulses preceded 100 msecs by 20 msec prepulses of either 4, 8, or 12 dB above background, and NO-[…] trials. All trial types were presented in pseudo-random order separated by an average of 15 seconds. In addition, four PULSE-ALONE trials that were not used in the calculation of PPI values were presented at the beginning and at the end of the test session, to habituate animals to the pulse and in order to provide a measure of habituation across the session.
PD149163 versus cirazoline. Thirty-two drug-naïve rats were administered SC injections of the following doses of PD149163, 0 (saline), 0.01, 0.1, or 1 mg/kg. Thirty minutes later, they were injected SC with either saline or cirazoline (0.7 mg/kg), a dose known to reliably disrupt PPI. Animals were tested in startle chambers thirty minutes later and PPI measured as described. […]

[4] = system: PPI deficits produced by DOI; conditions: reported by Geyer et al.; cited from earlier work

Compound	acoustic startle response (ASR) in LE rats versus vehicle (Long Evans (LE) rats; PD149163 highest dose (3 mg/kg))	PPI in LE rats versus vehicle (Long Evans (LE) rats; acute SC, all doses tested (haloperidol 0.1-1, clozapine 5-15, PD149163 0.5-2 mg/kg))	PPI in wild type LE rats with normal PPI (Long Evans (LE) rats; high doses of PD149163)	PPI in BB rats versus vehicle-treated BB rats (Brattleboro (BB) rats; PD149163 1 mg/kg SC, P<0.01)	PPI in BB rats versus vehicle-treated BB rats (Brattleboro (BB) rats; PD149163 3 mg/kg SC, P<0.05)	PPI in BB rats compared with LE rats (Brattleboro (BB) rats; after the lowest dose of PD149163)	PPI of vehicle-treated LE rats compared with drug-treated BB rats (Brattleboro (BB) rats; all doses tested (haloperidol 0.1-1, clozapine 5-15, PD149163 0.5-2 mg/kg SC))	acoustic startle response (ASR) in BB rats versus vehicle (Brattleboro (BB) rats; each dose of PD149163, P<0.05)	increase in PPI in BB rats compared with clozapine (Brattleboro (BB) rats; single dose)	binding to alpha-1 adrenergic receptors [1]	PPI in BN rats (Brown Norway (BN) rats)	increase in PPI in BN rats compared with clozapine (Brown Norway (BN) rats; single dose)	effect on PPI disruption produced by DOI [2]	PPI versus rats that received cirazoline and saline ([3]; PD149163 0.1 mg/kg SC + cirazoline 0.7 mg/kg, P<0.01)	PPI versus rats that received cirazoline and saline ([3]; PD149163 1 mg/kg SC + cirazoline 0.7 mg/kg, P<0.05)	startle: saline/cirazoline group versus cirazoline groups with active doses ([3]; PD149163 0.01, 0.1, 1 mg/kg SC)	startle magnitude (main effect, ANOVA) ([3]; cirazoline experiments, PD149163 P<0.05, NT69L P<0.01)	effect on cirazoline-induced PPI deficits ([3]; two highest doses of PD149163 (0.1, 1 mg/kg SC) 30 min before cirazoline 0.7 mg/kg SC)	effect on PPI deficits produced by DOI [4]
CCOC(=O)[C@H](CC(C)C)NC(=O)[C@@H](NC(=O)[C@H](Cc1c[nH]c2ccccc12)NC(=O)[C@@H]1CCCN1C(=O)[C@H](CCCCN)NC[C@@H](N)CCCCN)C(C)(C)C [PD149163, LysΨ(CH2NH)-Lys-Pro-Trp-tLeu-Leu-OEt] (H-[X1]PW[Tle]L-OEt)	reduced the ASR	no dose of PD149163 had a significant effect on PPI	increased PPI	significantly higher PPI	significantly higher PPI	higher than LE rats	not significantly different	significantly reduced	greater increase in PPI	neither PD149163 or NT69L bind	significantly increased PPI	greater increase in PPI	blocked the effect of DOI on PPI	significantly greater than PPI exhibited by rats that received cirazoline and saline	significantly greater than PPI exhibited by rats that received cirazoline and saline	no significant differences in startle	significant main effect	reversed PPI deficits produced by cirazoline	–
CN1CCN(C2=Nc3cc(Cl)ccc3Nc3ccccc32)CC1 [clozapine]	–	–	–	–	–	–	–	–	–	–	did not enhance PPI	–	–	–	–	–	–	–	antagonize PPI deficits produced by DOI
